# Results: PubChem BioAssay AID1347131 (National Center for Advancing Translational Sciences (NCATS), 2019)
# The whole screen tested about 410,000 compounds, of which about 2,000 (0.49%) were called active. The shares of active, inactive and inconclusive entries below differ from those in the screen. Calls follow the shape of the full dose curve; tested in HEK293 reporter line. Potencies beside an inconclusive call are fits to weak or partial responses and may not hold up.
# Assay: qHTS Assay for Foot and Mouth Disease Virus Antivirals: Primary Screen against the MLPCN compound library; also: nearly all actives have a fitted effect of over 55% in size
# Details: FMDV antiviral cell-based qHTS; activity, negative = inhibition: at 57.9 µM (top of the series)
# Potency is read from the fitted curve at half-maximal effect.
SMILES,Potency,"activity, negative = inhibition"
Cc1cccc(-c2cc3nc4c(c(N5CCOCC5)n3n2)CCCC4)c1,"inconclusive: 22.4 µM [inhibitor, single point]",
O=C(c1ccccc1)n1c(=S)nc2ccccn21,"inconclusive: 15.8 µM [inhibitor, single point]",
CCCCn1nnnc1NCc1cc(OC)c(OC)c(OC)c1,"inconclusive: 12.6 µM [inhibitor, partial curve, poor fit]",
CCOc1cc(CNc2ccc3c(c2)OCCO3)cc(Br)c1OC,"inconclusive: 25.1 µM [inhibitor, partial curve, poor fit]",
O=C(c1cc2nc(-c3ccc(F)cc3)cc(C(F)(F)F)n2n1)N1CCCCC1c1cccnc1 (stereo unspecified),"inconclusive: 17.8 µM [inhibitor, partial curve, poor fit]",
CCNc1ccc(C(=O)OCC(=O)N2c3ccccc3NC(=O)C2(C)C)cc1[N+](=O)[O-],"inconclusive: 20 µM [inhibitor, partial curve, poor fit]",
CC(C)(C)n1ncc2c(=O)n(Cc3c(Cl)cccc3Br)cnc21,,inactive: -48.1%
N=c1oc2ccccc2cc1C(=O)Nc1ccccc1,active: 11.2 µM,
Cc1cc(CNC(=O)c2cccc([N+](=O)[O-])c2C)c2ccccc2n1,"inconclusive: 14.1 µM [inhibitor, partial curve, poor fit]",
COc1cccc(CN(C)C(=O)c2cccc(S(=O)(=O)N3CCN(c4ccc(F)cc4)CC3)c2)c1OC,"inconclusive: 20 µM [inhibitor, partial curve, poor fit]",
O=C(NCCc1ccc(F)cc1)C(=O)NCC(c1cccs1)S(=O)(=O)c1ccccc1 (stereo unspecified),,inactive: -31.1%
COC(=O)c1ccc(/C=N/N2CCN(Cc3ccc(Cl)cc3)CC2)cc1,"inconclusive: 11.2 µM [inhibitor, partial curve, poor fit]",
Cc1ccc(SC2=C(Sc3ccc(C)cc3)C(=O)c3ccccc3C2=O)cc1,"inconclusive: 25.1 µM [inhibitor, partial curve, poor fit]",
O=C(O)c1ccc(N=Nc2c(O)ccc3ncccc23)cc1,"inconclusive: 5.62 µM [inhibitor, partial curve, poor fit]",
COc1ccc(NC(=O)c2cccc(N3C(=O)C4C5C=CC(C6CC56)C4C3=O)c2)cc1 (stereo unspecified),"inconclusive: 39.8 µM [inhibitor, partial curve, poor fit]",
CC(C)(C)NCC(O)(c1ccc(Cl)cc1)c1ccc(Cl)cc1,"inconclusive: 6.31 µM [inhibitor, partial curve, poor fit]",
O=C(Nc1ccc(NC(=O)c2cc3ccccc3o2)cc1)c1ccc2c(c1)OCCO2,,inactive: -26.3%
CN1CC(=O)NC1=NC(=O)c1ccc(Cl)c(S(=O)(=O)N2CCCCCC2)c1,"inconclusive: 25.1 µM [inhibitor, partial curve, poor fit]",
CC(=O)c1ccc(N2CCN(C(=O)c3ccc(C(=O)c4ccccc4)cc3)CC2)cc1,"inconclusive: 25.1 µM [inhibitor, partial curve, poor fit]",
CC(=O)c1ccc(Sc2nnnn2-c2ccccc2)c([N+](=O)[O-])c1,"inconclusive: 31.6 µM [inhibitor, partial curve, poor fit]",
Cc1ccc(S(=O)(=O)Nc2c(C)cc([N+](=O)[O-])cc2C)cc1,,inactive: -33.5%

# Another view of three compounds above:
SMILES	Potency	activity, negative = inhibition
O=C(c1cc2nc(-c3ccc(F)cc3)cc(C(F)(F)F)n2n1)N1CCCCC1c1cccnc1 (stereo unspecified)	inconclusive: 17.8 µM [inhibitor, partial curve, poor fit]	
N=c1oc2ccccc2cc1C(=O)Nc1ccccc1	active: 11.2 µM	
O=C(Nc1ccc(NC(=O)c2cc3ccccc3o2)cc1)c1ccc2c(c1)OCCO2		inactive: -26.3%

# Remaining list, next part:

SMILES,Potency,"activity, negative = inhibition"
FC(F)(F)c1cc(-c2cccs2)nc(-n2cc(Br)cn2)n1,,inactive: -39.4%
O=C(Nc1nc2ccccc2s1)C1CCN(S(=O)(=O)c2cc([N+](=O)[O-])ccc2Cl)CC1,"inconclusive: 35.5 µM [inhibitor, partial curve, poor fit]",
NC1=CC(=O)C(=O)c2ccccc21,"inconclusive: 39.8 µM [inhibitor, partial curve, poor fit]",
CC(CCc1ccccc1)NC(=O)c1cncc(Br)c1 (stereo unspecified),,inconclusive: -30.1% [inhibitor]
COc1ccc(C)cc1NC(=O)C(c1ccccc1)N1CCN(CC(=O)N2CCCC2)CC1 (stereo unspecified),"inconclusive: 17.8 µM [inhibitor, partial curve]",
C#CCOc1ccccc1/C=N/NC(=O)c1ccccc1OCc1ccccc1,"inconclusive: 17.8 µM [inhibitor, partial curve, poor fit]",
CCOc1cc(/C=N/Nc2nc(-c3cccs3)c(NC(C)=O)s2)ccc1O,"inconclusive: 3.98 µM [inhibitor, full curve]",
COc1ccc(Nc2ccc(N3C(=O)CC(C)C3=O)cc2[N+](=O)[O-])cc1OC (stereo unspecified),"inconclusive: 8.91 µM [inhibitor, partial curve, poor fit]",
Cc1ccc(-n2ncc3c(N4CCN(C)CC4)ncnc32)cc1C,"inconclusive: 39.8 µM [inhibitor, single point]",
O=C(NC1CC1)C1CCN(S(=O)(=O)c2cc([N+](=O)[O-])ccc2Cl)CC1,,inactive: -11.8%
O=C1CCCC2=C1C(c1ccccc1O)C1=C(CCCC1=O)O2,,inconclusive: -36% [inhibitor]
O=C(Nc1cccc(-c2ccc(N3CCCCC3)nn2)c1)C(F)(F)F,active: 14.1 µM,
Cc1ccccc1Nc1c(-c2ccncc2)nc2ccc(Cl)cn12,"inconclusive: 25.1 µM [inhibitor, partial curve, poor fit]",
Cc1ccc(Cl)cc1N1CCN(C(=O)CN(c2ccccc2)S(=O)(=O)N(C)C)CC1,"inconclusive: 20 µM [inhibitor, partial curve, poor fit]",
CN(O)/C=c1/ccc2c(n1)C(=O)C=CC=2,"inconclusive: 4.47 µM [inhibitor, partial curve, poor fit]",
CC(C)c1nc(N2CCN(C(=O)c3ccccc3)CC2)c(C#N)c2c1COC(C)(C)C2,"inconclusive: 39.8 µM [inhibitor, partial curve, poor fit]",
COc1c2ccc(C(=O)NCc3cc(C(F)(F)F)cc(C(F)(F)F)c3)cc2nn1C,,inconclusive: -30.2% [inhibitor]
O=C(NCC(c1ccccc1)c1ccccc1)c1nn(-c2ccccc2F)nc1CO,"inconclusive: 10 µM [inhibitor, partial curve, poor fit]",
CCc1cccc(NC(=O)CCCn2c(=O)[nH]c3ccsc3c2=O)c1,"inconclusive: 1 µM [inhibitor, full curve]",
CC(=O)N1CCCc2cc(S(=O)(=O)N3CCCC(C(=O)N4CCN(c5cc(C)ccc5C)CC4)C3)ccc21 (stereo unspecified),"inconclusive: 28.2 µM [inhibitor, partial curve, poor fit]",
Cc1cc(-c2csc(N)n2)c(C)n1CCc1ccccc1,"inconclusive: 11.2 µM [inhibitor, partial curve, poor fit]",

SMILES,Potency,"activity, negative = inhibition"
CCOC(=O)c1c(N)sc(=S)c2c1CCC2,"inconclusive: 22.4 µM [inhibitor, partial curve, poor fit]",
Cc1cc(Br)ccc1NC(=O)C1CCN(S(=O)(=O)c2ccc(Br)s2)CC1,"inconclusive: 28.2 µM [inhibitor, partial curve, poor fit]",
CCOC(=O)[C@]12Cc3cc(C)ccc3[C@H]1N(C1CCCCC1)C(=O)c1ccccc12,"inconclusive: 7.94 µM [inhibitor, full curve, poor fit]",
c1ccc(-c2nnc(-c3ccccn3)s2)nc1,active: 14.1 µM,
COc1ccc(-c2cc(C(F)(F)F)nc(SCCC(=O)NCc3ccco3)n2)cc1,,inconclusive: -37.1% [inhibitor]
Cc1ccc(Cn2ncc(Cl)c(Cl)c2=O)cc1,"inconclusive: 39.8 µM [inhibitor, partial curve, poor fit]",
COc1ccc(-c2csc(NC(=O)CSCC(=O)Nc3cc(C)on3)n2)cc1OC,"inconclusive: 28.2 µM [inhibitor, partial curve, poor fit]",
COc1cccc(-c2cc(C(F)(F)F)n3ncc(C(=O)NCC4CCCO4)c3n2)c1 (stereo unspecified),"inconclusive: 28.2 µM [inhibitor, partial curve, poor fit]",
CC(C)c1ccc(NC(=O)N2CCc3nc(NCc4cccc(Oc5ccccc5)c4)ncc3C2)cc1,"inconclusive: 14.1 µM [inhibitor, single point]",
CCCn1c(NC(=O)CCNC(=O)c2ccccc2Cl)nc2ccccc21,,inactive: -36%
CC(=O)N1CCc2c(sc3c2c(=O)n(CCc2ccccc2)c(=O)n3Cc2cccc(C)c2)C1,,inactive: -40.4%
Cc1ccc(N2CCN(C(=S)c3ccc(-c4ccccc4[N+](=O)[O-])o3)CC2)cc1,"inconclusive: 14.1 µM [inhibitor, partial curve, poor fit]",
CN(C)c1ccc(C=C2C(=O)NC(=S)NC2=O)cc1[N+](=O)[O-],"inconclusive: 39.8 µM [inhibitor, single point]",
O=C(Nc1cccc(Cl)c1N1CCOCC1)c1cc([N+](=O)[O-])ccc1N1CCOCC1,,inactive: -37.2%
Cc1cccc(C)c1NC(=O)c1ccc(-c2ccc(Cl)cc2Cl)o1,"inconclusive: 17.8 µM [inhibitor, partial curve, poor fit]",
Cc1cnc(SCc2ccccn2)nc1C1CCCN(C(=O)c2noc3c2CCCC3)C1 (stereo unspecified),"inconclusive: 20 µM [inhibitor, partial curve, poor fit]",
CCCCCCCCOC(=O)C[N+](C)(C)C/C=C(/C)Cl,"inconclusive: 12.6 µM [inhibitor, partial curve]",
O=C(Nc1ccc(-c2noc(CCc3ccccc3)n2)cc1)c1ccco1,"inconclusive: 39.8 µM [inhibitor, single point]",
CC(=O)Nc1ccc(S(=O)(=O)N(C)CC(=O)Nc2ccc(Br)cc2F)cc1,,inactive: -32.1%
